The list does not hold the whole screen: it gathers tests that were run many times, whatever their T/C, doses with no T/C, and many T/C values between a quarter and a half above the control. Further doses and runs are listed elsewhere. T/C is the treated group as % of the vehicle group. Some entries give survivors of the animals treated and no T/C: the source files T/C as zero there, which appears to mark a toxic dose or a test without result, not a measured value. Some doses without a T/C left all or most animals alive at the check, yet need not have been tolerated: the source hardly ever lists a survival T/C far under the control, and the zero likely stands for such cases as well. Counts of survivors are from the toxicity check (mostly the fifth day) where no day follows; animals may have died later. Schedules are NCI's codes, read here as Q, the interval in days (D) or hours (H), X, the number of doses. Some doses were run more than once; the values are given in rising order. For survival time, this PubChem deposit counts one and a half times the control or more as active, and values a quarter to a half above the control carry no call in these data; other NCI protocols may use other cut-offs.

The test system of the assay is P388 leukemia ip, CD2F1 mice, survival T/C. Put plainly: NCI In Vivo Anticancer Drug Screen. Data for tumor model P388 Leukemia (intraperitoneal) in CD2F1 (CDF1) mice. Conditions: T/C endpoint: median survival time, higher T/C = longer survival.
The mark [1] stands for this setting: dose: 50.0 mg/kg/injection, schedule: Q01DX009 (ip), vehicle: Klucel (hydroxypropylcellulose) (HPC).
Where [2] appears, read: dose: 100.0 mg/kg/injection, schedule: Q01DX009 (ip), vehicle: Klucel (hydroxypropylcellulose) (HPC).
Where [3] appears, read: dose: 200.0 mg/kg/injection, schedule: Q01DX009 (ip), vehicle: Klucel (hydroxypropylcellulose) (HPC).
Setting [4] is: dose: 200.0 mg/kg/injection, schedule: Q01DX009 (ip), vehicle: saline.
[5] abbreviates: dose: 200.0 mg/kg/injection, schedule: Q01DX009 (ip), vehicle: saline with Tween-80.
Setting [6] is: dose: 3.13 mg/kg/injection, schedule: Q01DX009 (ip), vehicle: water.
The mark [7] stands for this setting: dose: 6.25 mg/kg/injection, schedule: Q01DX009 (ip), vehicle: water.
[8] abbreviates: dose: 12.5 mg/kg/injection, schedule: Q01DX009 (ip), vehicle: water.
[9] abbreviates: dose: 25.0 mg/kg/injection, schedule: Q01DX009 (ip), vehicle: distilled water + Tween-80.
Where [10] appears, read: dose: 200.0 mg/kg/injection, schedule: Q01DX009 (ip), vehicle: distilled water + Tween-80.
The mark [11] stands for this setting: dose: 12.5 mg/kg/injection, schedule: Q01DX009 (ip), vehicle: other.
Setting [12] is: dose: 400.0 mg/kg/injection, schedule: Q04DX002 (ip), vehicle: saline with Tween-80.

As for `CC12CC3OC(=O)C1COC14OC5(C2C1=O)C(O)(CCC1C4CC(O)C2(O)CC=CC(=O)C12C)C(=O)OC35C` (centres undefined), the survivor count (dose: 96.0 mg/kg/injection, schedule: Q01DX009 (ip), vehicle: Klucel (hydroxypropylcellulose) (HPC)) was 3 of 6.
Regarding `Cc1cc(Cl)ccc1N=Cc1ccc(C=Nc2ccc(Cl)cc2C)cc1`, the survivor count by setting is: under setting [1], 6 of 6; under setting [2], 5 of 6; under setting [3], 6 of 6.
In the case of `C#CCN(C)Cc1cc(OC)c(OC)c(OC)c1`, the survivor count is, setting by setting: (dose: 25.0 mg/kg/injection, schedule: Q01DX009 (ip), vehicle: saline) 6 of 6; under setting [4], 6 of 6.
As for `Cc1cc2c(c(C#N)c1C)NC=NC2C` (centres undefined), the survivor count under setting [5] is on record as 1 of 6.
`COc1cc(C(=O)N=Nc2c(O)[nH]c3ccc(Br)cc23)cc(OC)c1OC`: the survivor count (dose: 25.0 mg/kg/injection, schedule: Q01DX009 (ip), vehicle: Klucel (hydroxypropylcellulose) (HPC)) was 6 of 6; the survivor count under setting [1] was 6 of 6; the survivor count under setting [2] was 6 of 6; the survivor count under setting [3] was 6 of 6; the survivor count (dose: 400.0 mg/kg/injection, schedule: Q01DX009 (ip), vehicle: Klucel (hydroxypropylcellulose) (HPC)) is given as 6 of 6.
For the compound `CCCCCCCCCCCCOC(=O)c1ccc(OP(=O)(O)OCc2ccccc2)cc1`, the survivor count is given as 1 of 6 under setting [2] and 4 of 6 under setting [3].
Take `COc1cccc2c1C(=O)c1c(O)c3c(c(O)c1C2=O)C[C@@](O)(c1csc(N2CCN(C)CC2)n1)C[C@@H]3OC1CC(N)C(O)C(C)O1` (some centres undefined): the T/C runs as follows: (dose: 0.78 mg/kg/injection, schedule: Q01DX009 (ip), vehicle: water) 132 % of control; (dose: 1.56 mg/kg/injection, schedule: Q01DX009 (ip), vehicle: water) 125 and 138 % of control; under setting [6], 140 and 148 % of control; under setting [7], 129 % of control. The survivor count runs as follows: under setting [7], 4 of 6 and 6 of 6; under setting [8], 5 of 6; (dose: 25.0 mg/kg/injection, schedule: Q01DX009 (ip), vehicle: water) 4 of 6.
As to `CNCCC1CCCCC1`, the survivor count is given as 3 of 5 (dose: 100.0 mg/kg/injection, schedule: Q01DX005 (ip), vehicle: Klucel (hydroxypropylcellulose) (HPC)) and 0 of 5 (dose: 200.0 mg/kg/injection, schedule: Q01DX005 (ip), vehicle: Klucel (hydroxypropylcellulose) (HPC)).
For the compound `C=CCC(NC(=O)CCl)C(=O)O` (centres undefined), the survivor count under setting [4] is reported as 3 of 6.
In the case of `Cc1c2cc[n+](C)c(C)c2cc2c1[nH]c1ccccc12`, the survivor count (dose: 80.0 mg/kg/injection, schedule: Q04DX002 (ip), vehicle: water) was 6 of 6 and the survivor count (dose: 160.0 mg/kg/injection, schedule: Q04DX002 (ip), vehicle: water) was 0 of 6.
For the compound `CC1(C)S(=O)(=O)OCCOS1(=O)=O`, the T/C (dose: 15.0 mg/kg/injection, schedule: Q01DX005 (ip), vehicle: Klucel (hydroxypropylcellulose) (HPC)) was 146 % of control and the T/C (dose: 30.0 mg/kg/injection, schedule: Q01DX005 (ip), vehicle: Klucel (hydroxypropylcellulose) (HPC)) is 131, 135, 138 % of control. Further, the survivor count (dose: 60.0 mg/kg/injection, schedule: Q01DX005 (ip), vehicle: Klucel (hydroxypropylcellulose) (HPC)) is 3 of 6; the survivor count (dose: 120.0 mg/kg/injection, schedule: Q01DX005 (ip), vehicle: Klucel (hydroxypropylcellulose) (HPC)) is 0 of 6; the survivor count (dose: 240.0 mg/kg/injection, schedule: Q01DX005 (ip), vehicle: Klucel (hydroxypropylcellulose) (HPC)) is 0 of 6.
As for `CCCCNC(=O)OCC1=C(COC(=O)NCCCC)C2OC1C(C(=O)OC)=C2C(=O)OC`, the T/C was 86, 98, 105, 107 % of control (dose: 12.5 mg/kg/injection, schedule: Q01DX009 (ip), vehicle: distilled water + Tween-80) and 97, 99, 123 % of control under setting [9]. In addition, the survivor count runs as follows: under setting [9], 6 of 6; (dose: 50.0 mg/kg/injection, schedule: Q01DX009 (ip), vehicle: distilled water + Tween-80) 6 of 6; (dose: 100.0 mg/kg/injection, schedule: Q01DX009 (ip), vehicle: distilled water + Tween-80) 6 of 6; under setting [10], 2 of 6.
As for `C[N+](C)(C)[N-]C(=N)c1ccccc1`, the survivor count (dose: 200.0 mg/kg/injection, schedule: Q01DX001 (ip), vehicle: suspension in saline) is reported as 1 of 6 and the survivor count (dose: 400.0 mg/kg/injection, schedule: Q01DX001 (ip), vehicle: suspension in saline) is listed as 0 of 6.
For the compound `O=C(Nc1nc2c(Cl)cccc2s1)C(F)(F)C(F)(F)C(F)(F)F` (tested in a mixture with another compound), the survivor count under setting [5] was 0 of 6.
As to `CCCOC1CC(C)(O)Cc2cc3c(c(O)c21)C(=O)c1c(O)cc2c(c1C3=O)OC1OC2(C)C(O)C(N(C)C)C1O` (centres undefined), the T/C by setting is: (dose: 1.56 mg/kg/injection, schedule: Q01DX009 (ip), vehicle: other) 140 % of control; (dose: 3.13 mg/kg/injection, schedule: Q01DX009 (ip), vehicle: other) 126 % of control; (dose: 6.25 mg/kg/injection, schedule: Q01DX009 (ip), vehicle: other) 134 and 145 % of control; under setting [11], 140 % of control. The survivor count runs as follows: under setting [11], 6 of 6; (dose: 25.0 mg/kg/injection, schedule: Q01DX009 (ip), vehicle: other) 0 of 6 and 2 of 6.
`N/C(=N\S(=O)(=O)c1cc(C(F)(F)F)cc(C(F)(F)F)c1)c1ccncc1`: under setting [5], the survivor count is listed as 4 of 6.
For `[Cl][Pt][Cl].[NH-]CC(=O)O`, the T/C reads like this: under setting [6], 129 % of control; under setting [7], 131 and 132 % of control; under setting [8], 148 and 149 % of control. Moreover, the survivor count (dose: 100.0 mg/kg/injection, schedule: Q01DX009 (ip), vehicle: water) was 3 of 6.
For the compound `CCOC(=O)CCC(NC(=O)c1ccc(CBr)cc1)C(=O)OCC` (centres undefined), under setting [10], the survivor count is 1 of 6.
As for `CS(=O)(=O)OCC(Br)C(Br)COS(C)(=O)=O` (centres undefined), the survivor count under setting [3] was 6 of 6.
Consider `Cc1cc2c(cc1NCc1ccccc1)C(C)C(=O)CCC(=O)N2Cc1ccccc1` (centres undefined), for which the survivor count reads like this: (dose: 100.0 mg/kg/injection, schedule: Q01DX005 (ip), vehicle: saline with Tween-80) 6 of 6; (dose: 200.0 mg/kg/injection, schedule: Q01DX005 (ip), vehicle: saline with Tween-80) 6 of 6.
Turning to `Clc1nc2nc(Cl)c(Cl)n2c(Cl)c1Cl`, the survivor count under setting [12] is recorded as 0 of 6.
For `CN(C)CCC[Si]1(C)c2ccccc2CCc2ccccc21`, the survivor count reads like this: (dose: 100.0 mg/kg/injection, schedule: Q04DX003 (ip), vehicle: saline with Tween-80) 0 of 6; (dose: 200.0 mg/kg/injection, schedule: Q04DX003 (ip), vehicle: saline with Tween-80) 0 of 6; (dose: 400.0 mg/kg/injection, schedule: Q04DX003 (ip), vehicle: saline with Tween-80) 0 of 6.
`CC1(C)OC(c2ccccc2)=CC1=O`: the survivor count under setting [12] is 1 of 6.
Take `C=CC(=O)N/C(N)=N\C(N)=O`: the survivor count reads like this: (dose: 25.0 mg/kg/injection, schedule: Q01DX005 (ip), vehicle: saline) 2 of 6; (dose: 50.0 mg/kg/injection, schedule: Q01DX005 (ip), vehicle: saline) 0 of 6; (dose: 100.0 mg/kg/injection, schedule: Q01DX005 (ip), vehicle: saline) 0 of 6; (dose: 200.0 mg/kg/injection, schedule: Q01DX005 (ip), vehicle: saline) 0 of 6.
